Assay results published in PubChem BioAssay AID504444 (National Center for Advancing Translational Sciences (NCATS), 2011).
Where “and” joins values, the source holds several entries; their conditions need not be identical. Identical values can stand only once. In all, about 360,000 compounds went through this assay and about 7,500 (2.1%) were called active. Inconclusive results, whose numbers are uncertain, are shown with a selection of clear calls. The call rests on the fitted dose curve; in most records, active means well fitted inhibition curve with a large enough effect; inconclusive means small, poorly fitted or top-dose-only effect, or effect the other way; inactive means flat fitted curve, though single readings scatter. Where the call is inconclusive, the potency comes from a doubtful curve fit.

Experiment: Nrf2 qHTS screen for inhibitors; further: nearly all actives have a fitted effect of over 60% in size
Conditions: A549 ARE-Fluc reporter, luciferase luminescence, 18-24 h; series mostly up to 46 µM
How it was run: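 A549 ARE_Fluc cells (5000/well, 5% FBS OPTI-MEM) pre-incubated 2 h, then treated with compounds 18-24 h at 37C/5% CO2 in concentration-response. CellTiter-Fluor viability read first; BugLite luciferase luminescence after 15 min at room temperature gives Nrf2 activity.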
Potency means the concentration at half of the fitted maximal effect.

SMILES	Potency
O=c1cc(CSc2nnc(Nc3ccccc3)s2)nc2sccn12	inconclusive: 16.4 µM [falling, single point]
Cn1nnnc1Sc1ncnc2scc(-c3cccs3)c12	inconclusive: 29.1 µM [falling, single point] and inconclusive: 16.4 µM [falling, single point]
CN(CCc1ccccc1)C(=O)c1cccc(NC(=O)Cc2cccc(NC(=O)C3CCCN(C(=O)C4CCCCC4)C3)c2)c1 (stereo unspecified)	inconclusive: 20.6 µM [falling, partial curve]
Cc1sc(-n2cccc2)c(C(C)NC(=O)Nc2ccccc2Cl)c1C (stereo unspecified)	inactive
Cc1nn(-c2ccccc2)c2c1C(c1ccc(Cl)cc1)N(c1ccccc1)C(=O)N2 (stereo unspecified)	inconclusive: 18.4 µM [falling, single point]
O=C(O)c1ccc(Cl)c(NC(=O)C2CCCN2S(=O)(=O)c2cccc3nsnc23)c1 (stereo unspecified)	inconclusive: 2.31 µM [falling, partial curve, poor fit]
Cc1ccc(OCC(=O)NNC(=S)NC(=O)C2CCCCC2)c(C)c1	inconclusive: 16.4 µM [falling, partial curve, poor fit]
CCC(C(=O)Nc1ccc2c(c1)OCCO2)n1nnc2ccccc2c1=O (stereo unspecified)	inconclusive: 6.51 µM [activator, partial curve, poor fit]
CC(C)COc1ccc(C(=O)Nc2ccccc2[N+](=O)[O-])cc1	inconclusive: 1.84 µM [activator, full curve, poor fit]
Cc1ccc(-c2nc(COC(=O)c3c(C)noc3C)cs2)cc1	inconclusive: 29.1 µM [falling, single point]
Cc1ccc(N2CCN(C(=O)C3CCC(=O)N(Cc4ccc(Cl)cc4)C3)CC2)c(C)c1 (stereo unspecified)	inconclusive: 18.4 µM [falling, partial curve]
NCCS(=O)(=O)NC1CCCCC1	inconclusive: 7.31 µM [activator, partial curve]
COc1cccc(NS(=O)(=O)c2ccc3c(c2)CCC(=O)N3)c1	inconclusive: 25.9 µM [falling, single point]
O=C(CCCc1nc(-c2ccccc2)no1)Nc1cc(C(F)(F)F)cc(C(F)(F)F)c1	inconclusive: 29.1 µM [falling, single point]
CCN(Cc1ccccc1)S(=O)(=O)c1ccc(C(=O)N(CCCN(C)C)c2nc3cc(OC)ccc3s2)cc1	inactive
Cc1ccc(-n2nnnc2SCC(=O)c2cc(C)n(-c3cc(C)on3)c2C)c(C)c1	inconclusive: 29.1 µM [falling, single point]
O=C(NCCNc1ccccc1[N+](=O)[O-])c1cc(F)c(F)cc1Cl	inconclusive: 9.2 µM [activator, partial curve, poor fit]
COc1ccc(-c2cc(C)no2)cc1S(=O)(=O)NCC(C)c1ccccc1 (stereo unspecified)	inconclusive: 20.6 µM [falling, single point]
CC(C)(C)N1C(=O)c2ccccc2NC(=O)N1Cc1ccc(Br)cc1	inconclusive: 18.4 µM [falling, partial curve, poor fit]
Cc1cc(C)c(S(=O)(=O)NCCc2cc3ccc(C)cc3[nH]c2=O)c(C)c1	inactive
CCN(CC(=O)Nc1c(F)cccc1F)C(=O)c1ccc(C2SCCS2)cc1	inactive

SMILES	Potency
Cc1ccc(/C=N\NC(=O)Cn2nnc3ccccc32)o1	inconclusive: 2.91 µM [falling, partial curve]
Cc1nc(N/N=C\c2ccc3c(c2)OCO3)sc1C	inconclusive: 9.2 µM [activator, partial curve]
COc1ccc(NC(=O)C2CCC(C(C)(C)C)CC2)cc1S(=O)(=O)N1CCCCC1 (stereo unspecified)	inconclusive: 16.4 µM [falling, partial curve]
Cc1cc(C)cc(OCC(=O)Nc2ccc3c(c2)C(=O)c2ccccc2C3=O)c1	inconclusive: 16.4 µM [activator, partial curve, poor fit]
Cc1ccc(NS(=O)(=O)c2cc3c(cc2Br)NC(=O)CO3)cc1C	inactive
O=C(CNC(=S)N(Cc1ccccc1)Cc1ccccc1F)NCCc1ccccc1	inconclusive: 20.6 µM [falling, single point]
N#Cc1nc(Cc2cccc3ccccc23)oc1NCc1ccc(F)cc1	inconclusive: 25.9 µM [falling, single point]
Cc1ccc(OC(=O)c2ccc([N+](=O)[O-])cc2Cl)cn1	inconclusive: 5.17 µM [falling, partial curve, poor fit]
O=C(CN(c1cc(C(F)(F)F)ccc1Cl)S(=O)(=O)c1ccccc1)NCCc1ccccc1	inconclusive: 18.4 µM [falling, single point]
NC(=O)CC(NC(=O)Cc1cccc2ccccc12)c1ccc(NC2CC3CCC2C3)c([N+](=O)[O-])c1 (stereo unspecified)	inconclusive: 23.1 µM [falling, single point]
COc1ccc(-c2c(C#N)c(SCC(=O)Nc3ccc(Br)cc3)nc(C)c2C(=O)Nc2ccccc2)cc1	inactive
COc1ccc(CCn2c(=N)c(C(=O)NCc3ccco3)cc3c(=O)n4ccccc4nc32)cc1OC	inactive
CCOC(=O)C(NC(=O)CC)(Nc1nc2c(s1)CCCC2)C(F)(F)F (stereo unspecified)	inconclusive: 29.1 µM [falling, single point]
COc1ccc(-c2nnc(SCC(=O)N3CCCC3)o2)c(OC)c1	inconclusive: 20.6 µM [activator, single point]
C/C(Cc1ccccc1)=N\NC(=O)CNC(=O)c1ccc(C(C)(C)C)cc1	inconclusive: 3.66 µM [activator, full curve, poor fit]
CCN(CC)C(=O)c1oc2ccc(S(=O)(=O)N3CC(C)CC(C)C3)cc2c1C (stereo unspecified)	active: 8.2 µM
COc1ccc(N(C)S(=O)(=O)c2cccc(C(=O)NC3CCCC(C)C3C)c2)cc1 (stereo unspecified)	inconclusive: 20.6 µM [falling, single point]
Cc1cccc2cc(C(c3nnnn3C(C)(C)C)N3CCN(C(=O)c4ccco4)CC3)c(=O)[nH]c12 (stereo unspecified)	inconclusive: 29.1 µM [falling, single point]
CSc1nn(CC(=O)Nc2ccccc2F)c(N)c1S(=O)(=O)c1ccccc1	inconclusive: 5.8 µM [falling, partial curve, poor fit]
Cc1ccc(CNC(=O)C(Cc2ccccc2)NS(=O)(=O)c2cccs2)cc1 (stereo unspecified)	inconclusive: 18.4 µM [falling, partial curve, poor fit]
COc1cc(/C=c2\s/c(=C(/C#N)C(=O)N3CCCC3)n(-c3ccccc3)c2=O)ccc1O	inconclusive: 29.1 µM [activator, single point]

SMILES	Potency
CCN1/C(=C(\O)c2ccccc2)C(=O)c2ccccc2S1(=O)=O	inconclusive: 23.1 µM [falling, single point]
CCc1ccc(NC(=O)CCc2c(C)nc3nc(-c4cc(OC)cc(OC)c4)nn3c2C)cc1	inconclusive: 1.46 µM [falling, partial curve]
COc1ccc(-c2noc(CCCC(=O)Nc3cccc(Cl)c3C)n2)cc1	inconclusive: 29.1 µM [falling, partial curve, poor fit]
Fc1cccc(/C=N/Nc2ccc3ccccc3n2)c1	inconclusive: 18.4 µM [activator, partial curve]
Cc1ccc(CN2CCSc3ccc(C(=O)NCc4ccc(OC(C)C)cc4)cc32)cc1	inconclusive: 11.6 µM [falling, partial curve]
COc1ccc(S(=O)(=O)N2CCC(N3CCN(Cc4ccccc4)C(=O)C3=O)CC2)cc1	inconclusive: 11.6 µM [activator, partial curve, poor fit]
CCn1c2ccccc2c2nnc(N3CCN(c4cccc(Cl)c4)CC3)nc21	inconclusive: 16.4 µM [falling, single point]
CC1CC(C)CN(CC(=O)Nc2ccc3c(c2)OCCO3)C1 (stereo unspecified)	inconclusive: 20.6 µM [activator, single point]
CN(Cc1ccc(F)cc1)C(=O)c1cccc(S(=O)(=O)N2CCN(c3ccccc3)CC2)c1	active: 23.1 µM
O=C(CCl)N(c1ccc(Cl)cc1)c1c[nH]c2ccccc12	active: 20.6 µM
CC(=O)Nc1cnc(NC(=O)c2cccc(F)c2)cc1C	inconclusive: 0.651 µM [activator, partial curve, poor fit]
O=C(NNC(=O)c1ccc(-c2ccccc2)cc1)c1ccccc1	inconclusive: 7.31 µM [activator, partial curve]
O=C(NC(=S)Nc1ccc(N2CCOCC2)cc1)c1ccco1	inactive
CC1(C)CC(=O)C(C=Nc2ccc(N)cc2)=C(O)C1	inconclusive: 1.84 µM [falling, partial curve, poor fit]
CN(C)C(=O)CCc1ccc2c3c([nH]c2c1)[C@]1(CCC2CCCC2)[C@@H](C(=O)N2CCOCC2)C[C@H](CC(=O)NCc2cccc(C(F)(F)F)c2)C(=O)N1CC3	inconclusive: 29.1 µM [falling, single point]
Cc1ccccc1NC(=O)c1cc2c(-c3ccccc3)nn(-c3ccccc3)c2s1	inconclusive: 18.4 µM [falling, single point]
COc1ccc(C(C(=O)NCc2ccc(F)cc2)N(C(=O)c2csnn2)C2CC2)cc1 (stereo unspecified)	inactive
COc1ccc(C2CC(=O)N3C(=C2C#N)SCC3(O)c2ccccc2)cc1 (stereo unspecified)	inconclusive: 29.1 µM [falling, single point]
Cc1cccc(N2CCN(C(=O)Cn3nc(C)c4sc5ccccc5c4c3=O)CC2)c1C	inconclusive: 16.4 µM [falling, partial curve]
